Data published in PubChem BioAssay AID1347076 (National Center for Advancing Translational Sciences (NCATS), 2019).
About 13,000 (3.2%) of roughly 400,000 compounds were called active. Inconclusive means that the source gave no clear call. Such entries were picked first, then a sample of the others. The call rests on the fitted dose curve; in most records, active means well fitted cell-killing curve with a large enough effect; inconclusive means small, poorly fitted or top-dose-only effect, or effect the other way; inactive means flat fitted curve, though single readings scatter. Where the call is inconclusive, the potency comes from a doubtful curve fit.

Assay: qHTS assay for MDR1-selective chemotherapeutics: Primary screen using the drug-selected MDR subline cells KB-V1; further: nearly all actives have a fitted effect of over 60% in size
Conditions: KB-V1 MDR cells viability, CellTiter-Glo, 72 h; activity change, negative = cytotoxicity: at 46.1 µM (top of the series)
Summary of the method: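 KB-V1 MDR subline cells in DMEM (phenol-red free, 10% FBS) exposed to compounds in qHTS concentration series for 72 h at 37 degrees C. Viability read by CellTiter-Glo luminescence; concentration-effect curves fitted after normalization and correction.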
On the % scale 0 is the no-effect control and ±100 the full control effect; potency means the concentration at half of the fitted maximal effect.

Compound	activity change, negative = cytotoxicity	Potency
O=C(O)c1cccc(NC(=O)c2cc3cc(Br)cc(Br)c3oc2=O)c1	inactive: 11.1%	
O=C(Nc1ccc(F)cc1)C(c1ccccc1OC(F)(F)F)N1CCN(C(=O)c2ccco2)CC1 (stereo unspecified)		inconclusive: 3.66 µM [cytotoxic, full curve]
Cc1nc(-c2ccccc2)nc2[nH]c(=O)n(-c3ccccc3)c(=O)c12		active: 20.6 µM
O=C(CSc1nc(-c2ccco2)cc(C(F)(F)F)n1)NCCN1CCOCC1	inactive: -2.29%	
CC1(C)Cc2cccc(OCC(=O)NCc3ccc(F)cc3)c2O1		active: 14.6 µM
COc1ccccc1N1CCN(Cc2nc(N)nc(Nc3ccc(C)cc3)n2)CC1		inconclusive: 29.1 µM [cytotoxic, single point]
CC(C)NC(=S)NN=C1CCCCCCCCCCC1		inconclusive: 20.6 µM [cytotoxic, single point]
CCOc1ccc2nc(Cl)c(/C=C/C(=O)c3ccco3)cc2c1		inconclusive: 14.6 µM [cytotoxic, partial curve, poor fit]
CN(Cc1ccccc1)C(=O)C(C(=O)c1ccc(F)cc1)n1cc(Cl)ccc1=O (stereo unspecified)		inconclusive: 29.1 µM [rising, single point]
COc1ccc(S(=O)(=O)N(CC(=O)NCCSc2ccccc2)c2ccc(C)cc2)cc1	inactive: -31.3%	
Cc1cccc(C(C)(C)C)c1OCCN1CCCC1		inconclusive: 16.4 µM [rising, partial curve, poor fit]
O=c1cnc2ccccc2n1Cc1ccc(Br)cc1		inconclusive: 18.4 µM [cytotoxic, single point]
COc1ccc(S(=O)(=O)N(C)C[C@H]2Oc3c(cccc3N(C)C)C(=O)N([C@H](C)CO)C[C@@H]2C)cc1	inactive: -10.4%	
CC(C)[C@H](NS(=O)(=O)c1ccccc1F)C(=O)OCC(=O)Nc1cccc(S(N)(=O)=O)c1	inactive: 12.6%	
C[C@H](NC(=O)Cc1cccc2ccccc12)C(=O)NCc1ccccc1		inconclusive: 20.6 µM [cytotoxic, single point]
O=c1cc(O)c2c(=O)n(-c3ccccc3)c3c(c2o1)CCCCCC3		active: 5.17 µM
CN(CC1COc2ccccc2O1)C(=O)Cn1cc(C(F)(F)F)ccc1=O (stereo unspecified)		inconclusive: 29.1 µM [cytotoxic, single point]
O=C(c1ccc(Cl)cc1)c1oc2ccccc2c1CS(=O)c1ccc(Cl)cc1 (stereo unspecified)		active: 20.6 µM
CN(CC(=O)Nc1ccc(F)cc1)C(=O)C1CCCC1		inconclusive: 18.4 µM [rising, partial curve]
CC(C)c1ccc(NS(=O)(=O)c2cccc3cccnc23)cc1		inconclusive: 2.59 µM [rising, full curve]
COc1ccccc1CNC(=O)CCCCn1c(=O)c2ccccc2n(CC(=O)Nc2c(C)cc(C)cc2C)c1=O		inconclusive: 29.1 µM [rising, single point]
CC(=O)NC(=S)Nc1ccc(NC(=O)c2cccnc2)cc1		inconclusive: 11.6 µM [rising, partial curve, poor fit]
Cc1ccc(S(=O)(=O)N2CCCC2C(=O)Nc2nc3ccccc3s2)cc1 (stereo unspecified)		inconclusive: 20.6 µM [cytotoxic, single point]

Entries listed so far that have bromine:
Compound	activity change, negative = cytotoxicity	Potency
O=C(O)c1cccc(NC(=O)c2cc3cc(Br)cc(Br)c3oc2=O)c1	inactive: 11.1%	
O=c1cnc2ccccc2n1Cc1ccc(Br)cc1		inconclusive: 18.4 µM [cytotoxic, single point]

(list continues)

Compound	activity change, negative = cytotoxicity	Potency
COCCn1c(=O)[nH]c2cc(C(=O)N3CCN(c4cccc(Cl)c4)CC3)ccc2c1=O	inactive: 1.91%	
CCN(CC)C(=O)CSc1ncnc2sc(-c3ccccc3)cc12		inconclusive: 7.94 µM [cytotoxic, partial curve, poor fit]
COc1ccccc1NC(=O)Nc1c(C)n(C)n(-c2ccccc2)c1=O	inactive: -12.4%	
CCOC(=O)/C(C#N)=C1/CCCCCN1C		inconclusive: 16.4 µM [rising, single point]
Cc1ccc(C)c(NC(=O)CSc2nnc(-c3ccccc3C)o2)c1		inconclusive: 14.6 µM [cytotoxic, partial curve]
CC(=O)[C@]1(O)Cc2c(O)c3c(c(O)c2[C@@H](O[C@H]2C[C@H](N)[C@H](O)[C@H](C)O2)C1)C(=O)c1ccccc1C3=O		active: 1.84 µM
Cc1cc(C)cc(-n2c(SCC(=O)Nc3cccc(F)c3)nc3c([nH]c4ccccc43)c2=O)c1	inactive: 0%	
O=S(=O)(Nc1cccc(S(=O)(=O)N2CCCC2)c1)c1ccc(F)cc1		inconclusive: 29.1 µM [rising, single point]
N#Cc1c(/N=C/N2CCOCC2)sc2c1CCCCC2	inactive: -5.34%	
COc1ccc(SCCN2CC[C@@H](C)CCC2=O)cc1		inconclusive: 20.6 µM [cytotoxic, single point]
CC(NC(=S)Nc1ccccc1)C1COc2ccccc2O1 (stereo unspecified)		inconclusive: 29.1 µM [cytotoxic, single point]
CCCOC(=O)c1ccc(Oc2c(-c3ccc(OC)cc3O)n[nH]c2C)cc1		inconclusive: 18.4 µM [cytotoxic, single point]
O=C(COc1ccc(Br)cc1)NCCCNC(=O)c1cccnc1	inactive: -21%	
Cc1noc(C)c1COc1cccc(C(=O)N2CCc3ccccc32)c1		inconclusive: 13 µM [cytotoxic, partial curve]
O=C(OCn1ncc(Br)c(Br)c1=O)c1ccc(F)cc1		active: 5.17 µM
OCc1nc2ccccc2n1CC(O)Cn1ccc2ccccc21 (stereo unspecified)		active: 20.6 µM
COc1cc(CNCc2ccccn2)ccc1OCc1cccc(Cl)c1	inactive: -21.2%	
C=CCc1cccc(CNc2nc3ccccc3n2C(C)C)c1O		inconclusive: 20.6 µM [cytotoxic, single point]
CC(=O)c1cccc(-c2ccnc3c2CC(C(=O)Nc2ccc(F)c(Cl)c2)O3)c1 (stereo unspecified)		active: 20.6 µM
CC(C)(C)c1ccc(C(=O)C2CCCN(C(=O)CCn3cncn3)C2)cc1 (stereo unspecified)		inconclusive: 29.1 µM [cytotoxic, single point]
CSc1ccc(NC(=O)C2CCN(c3ncccn3)CC2)cc1	inactive: 4.55%	
Cc1cccc(C(=O)Nc2ccccc2-c2nnn(CC(=O)Nc3ccc4c(c3)OCCO4)n2)c1		inconclusive: 1.84 µM [cytotoxic, partial curve, poor fit]
CCC1(c2ccccc2)NC(=O)N(CC(=O)NNC(=O)c2ccc(F)cc2)C1=O (stereo unspecified)	inactive: 1.72%	
